# Data from the supplement of paper PMC4604168 (melanoma cell lines).
# The list shows a part of the results. Repeats are few or missing, and single values can be far off.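 Imaging used 1,536-well plates; nuclei positive for cleaved PARP by antibody were divided by total DNA-stained nuclei to yield the apoptosis fraction. Doses for screening kept most cells viable, and cell lines differ markedly in resting and induced cleaved-PARP levels.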
# Tested on: IST-MEL1
# Experiment: cleaved PARP positive nuclei fraction relative to DMSO control; melanoma cells; higher = more apoptosis
# Conditions: library dose: low library concentration; 72 h
row,Compound,cleaved PARP positive nuclei fraction
1,"C[C@@H](Oc1cc(-c2cnn(C3CCNCC3)c2)cnc1N)c1c(Cl)ccc(F)c1Cl [Crizotinib] + O=C(O)c1ccc(-c2c[nH]c3ncc(-c4ccccc4)cc23)cc1C1CCCC1 [GSK650394] (first compound 0.2 µM, partner dose 0.16 µM)",149%
2,"CS(=O)(=O)CCNCc1ccc(-c2ccc3ncnc(Nc4ccc(OCc5cccc(F)c5)c(Cl)c4)c3c2)o1 [lapatinib] + NC(=O)Nc1cc(-c2cccc(F)c2)sc1C(=O)N[C@H]1CCCNC1 [AZD7762] (first compound 0.8 µM, partner dose 0.02 µM)",61%
3,"CNC(=O)c1cc(Oc2ccc(NC(=O)Nc3ccc(Cl)c(C(F)(F)F)c3)cc2)ccn1 [sorafenib] + NC(=O)Nc1cc(-c2cccc(F)c2)sc1C(=O)N[C@H]1CCCNC1 [AZD7762] (first compound 0.4 µM, partner dose 0.02 µM)",89.8%
4,"CN1CCN(c2ccc3nc(-c4c(N)c5c(F)cccc5[nH]c4=O)[nH]c3c2)CC1 [Dovitinib] + NCC(=O)Nc1ccc(-n2nc(C(F)(F)F)cc2-c2ccc3c(ccc4ccccc43)c2)cc1 [OSU03012] (first compound 0.1 µM, partner dose 1 µM)",212%
5,"C=C(c1ccc(C(=O)O)cc1)c1cc2c(cc1C)C(C)(C)CCC2(C)C [Bexarotene] + NC(=O)Nc1cc(-c2cccc(F)c2)sc1C(=O)N[C@H]1CCCNC1 [AZD7762] (first compound 2 µM, partner dose 0.02 µM)",45.2%
6,"Cn1c(=O)n(-c2ccc(C(C)(C)C#N)cc2)c2c3cc(-c4cnc5ccccc5c4)ccc3ncc21 + Cn1cncc1[C@@](N)(c1ccc(Cl)cc1)c1ccc2c(c1)c(-c1cccc(Cl)c1)cc(=O)n2C [tipifarnib] (first compound 0.004 µM, partner dose 0.01 µM)",105%
7,"C[C@@H](Oc1cc(-c2cnn(C3CCNCC3)c2)cnc1N)c1c(Cl)ccc(F)c1Cl [Crizotinib] + CN(NC(=O)CC(=O)NN(C)C(=S)c1ccccc1)C(=S)c1ccccc1 [STA4783] (first compound 0.2 µM, partner dose 0.006 µM)",206%
8,"CC(C)C[C@H](NC(=O)[C@H](Cc1ccccc1)NC(=O)c1cnccn1)B(O)O [Bortezomib] + COc1cc2c(Oc3ccc4[nH]c(C)cc4c3F)ncnc2cc1OCCCN1CCCC1 [cediranib] (first compound 0.001 µM, partner dose 0.4 µM)",161%
9,"Cc1cc(Nc2cc(N3CCN(C)CC3)nc(/C=C/c3ccccc3)n2)n[nH]1 + Cc1cc(N2CCOCC2)cc2[nH]c(-c3c(NC[C@@H](O)c4cccc(Cl)c4)cc[nH]c3=O)nc12 [BMS536924] (first compound 0.04 µM, partner dose 0.2 µM)",51.9%
10,"C[C@@H](Oc1cc(-c2cnn(C3CCNCC3)c2)cnc1N)c1c(Cl)ccc(F)c1Cl [Crizotinib] + CC1(C)NC(=O)N(c2ccc([N+](=O)[O-])c(C(F)(F)F)c2)C1=O [nilutamide] (first compound 0.2 µM, partner dose 1 µM)",172%
11,"Cn1c(=O)n(-c2ccc(C(C)(C)C#N)cc2)c2c3cc(-c4cnc5ccccc5c4)ccc3ncc21 + NC(=O)Nc1cc(-c2cccc(F)c2)sc1C(=O)N[C@H]1CCCNC1 [AZD7762] (first compound 0.004 µM, partner dose 0.02 µM)",85.8%
12,"CC(C)C[C@H](NC(=O)[C@H](Cc1ccccc1)NC(=O)c1cnccn1)B(O)O [Bortezomib] + O=C(O)c1ccc(-c2c[nH]c3ncc(-c4ccccc4)cc23)cc1C1CCCC1 [GSK650394] (first compound 0.001 µM, partner dose 0.16 µM)",233%
13,"C[C@@H](Oc1cc(-c2cnn(C3CCNCC3)c2)cnc1N)c1c(Cl)ccc(F)c1Cl [Crizotinib] + C[C@@H]1CCN(C(=O)CC#N)C[C@@H]1N(C)c1ncnc2[nH]ccc12 [CP690550] (first compound 0.2 µM, partner dose 1 µM)",96.5%
14,"CC(C)C[C@H](NC(=O)[C@H](Cc1ccccc1)NC(=O)c1cnccn1)B(O)O [Bortezomib] + Cc1cc(N2CCOCC2)cc2[nH]c(-c3c(NC[C@@H](O)c4cccc(Cl)c4)cc[nH]c3=O)nc12 [BMS536924] (first compound 0.001 µM, partner dose 0.2 µM)",105%
15,"Nc1ccn([C@@H]2O[C@H](CO)[C@@H](O)C2(F)F)c(=O)n1 [gemcitabine] + CC(C)(C)c1cnc(CSc2cnc(NC(=O)C3CCNCC3)s2)o1 [SNS-032] (first compound 0.0004 µM, partner dose 0.01 µM)",92.5%
16,"CCCS(=O)(=O)Nc1ccc(F)c(C(=O)c2c[nH]c3ncc(Cl)cc23)c1F + C=CCn1c(=O)c2cnc(Nc3ccc(N4CCN(C)CC4)cc3)nc2n1-c1cccc(C(C)(C)O)n1 [MK1775] (first compound 0.08 µM, partner dose 0.02 µM)",261%
17,"Nc1ccn([C@@H]2O[C@H](CO)[C@@H](O)C2(F)F)c(=O)n1 [gemcitabine] + CC1(C)NC(=O)N(c2ccc([N+](=O)[O-])c(C(F)(F)F)c2)C1=O [nilutamide] (first compound 0.0004 µM, partner dose 1 µM)",44.8%
18,"CC(C)C[C@H](NC(=O)[C@H](Cc1ccccc1)NC(=O)c1cnccn1)B(O)O [Bortezomib] + Cc1ccc(NC(=O)c2cccc(N(C)C)c2)cc1NC(=O)c1ccc(O)cc1 [ZM336372] (first compound 0.001 µM, partner dose 2 µM)",101%
19,"CCCS(=O)(=O)Nc1ccc(F)c(C(=O)c2c[nH]c3ncc(Cl)cc23)c1F + CN(NC(=O)CC(=O)NN(C)C(=S)c1ccccc1)C(=S)c1ccccc1 [STA4783] (first compound 0.08 µM, partner dose 0.006 µM)",164%
20,"O=C(O)[C@@H]1[O][Sb](=[O])([O][Sb]2(=[O])[O][C@H]([C@H](O)CO)[C@H](O)[C@H](C(=O)O)[O]2)[O][C@H]([C@H](O)CO)[C@@H]1O (some centres not stated) [stibogluconate] + C[C@@H]1CCN(C(=O)CC#N)C[C@@H]1N(C)c1ncnc2[nH]ccc12 [CP690550] (first compound 2 µM, partner dose 1 µM)",94.8%
21,"C=C(c1ccc(C(=O)O)cc1)c1cc2c(cc1C)C(C)(C)CCC2(C)C [Bexarotene] + Cc1ccc(NC(=O)c2cccc(N(C)C)c2)cc1NC(=O)c1ccc(O)cc1 [ZM336372] (first compound 2 µM, partner dose 2 µM)",110%
22,"Cc1cc(Nc2cc(N3CCN(C)CC3)nc(/C=C/c3ccccc3)n2)n[nH]1 + CO[C@@H]1[C@H](N(C)C(=O)c2ccccc2)C[C@H]2O[C@]1(C)n1c3ccccc3c3c4c(c5c6ccccc6n2c5c31)C(=O)NC4 [Midostaurin] (first compound 0.04 µM, partner dose 0.08 µM)",69%

# Given bar-delimited: entries from further up.
row | Compound | cleaved PARP positive nuclei fraction
5 | C=C(c1ccc(C(=O)O)cc1)c1cc2c(cc1C)C(C)(C)CCC2(C)C [Bexarotene] + NC(=O)Nc1cc(-c2cccc(F)c2)sc1C(=O)N[C@H]1CCCNC1 [AZD7762] (first compound 2 µM, partner dose 0.02 µM) | 45.2%
6 | Cn1c(=O)n(-c2ccc(C(C)(C)C#N)cc2)c2c3cc(-c4cnc5ccccc5c4)ccc3ncc21 + Cn1cncc1[C@@](N)(c1ccc(Cl)cc1)c1ccc2c(c1)c(-c1cccc(Cl)c1)cc(=O)n2C [tipifarnib] (first compound 0.004 µM, partner dose 0.01 µM) | 105%
17 | Nc1ccn([C@@H]2O[C@H](CO)[C@@H](O)C2(F)F)c(=O)n1 [gemcitabine] + CC1(C)NC(=O)N(c2ccc([N+](=O)[O-])c(C(F)(F)F)c2)C1=O [nilutamide] (first compound 0.0004 µM, partner dose 1 µM) | 44.8%
19 | CCCS(=O)(=O)Nc1ccc(F)c(C(=O)c2c[nH]c3ncc(Cl)cc23)c1F + CN(NC(=O)CC(=O)NN(C)C(=S)c1ccccc1)C(=S)c1ccccc1 [STA4783] (first compound 0.08 µM, partner dose 0.006 µM) | 164%
20 | O=C(O)[C@@H]1[O][Sb](=[O])([O][Sb]2(=[O])[O][C@H]([C@H](O)CO)[C@H](O)[C@H](C(=O)O)[O]2)[O][C@H]([C@H](O)CO)[C@@H]1O (some centres not stated) [stibogluconate] + C[C@@H]1CCN(C(=O)CC#N)C[C@@H]1N(C)c1ncnc2[nH]ccc12 [CP690550] (first compound 2 µM, partner dose 1 µM) | 94.8%
